Article PMC9132088
Results are given in words; binding and its absence hold for the method and conditions named. Binding seen in cells or lysates may run through a third protein. Here binding means that the protein was enriched with, or labelled near, the bait; the list need not be complete. For some of these results: A no says only that the protein was not detected with the bait.

Sequences of proteins named here, by UniProt entry; tags and fusion partners are left off. Residues count along the entry.
UniProt Q12864, residues 23-832: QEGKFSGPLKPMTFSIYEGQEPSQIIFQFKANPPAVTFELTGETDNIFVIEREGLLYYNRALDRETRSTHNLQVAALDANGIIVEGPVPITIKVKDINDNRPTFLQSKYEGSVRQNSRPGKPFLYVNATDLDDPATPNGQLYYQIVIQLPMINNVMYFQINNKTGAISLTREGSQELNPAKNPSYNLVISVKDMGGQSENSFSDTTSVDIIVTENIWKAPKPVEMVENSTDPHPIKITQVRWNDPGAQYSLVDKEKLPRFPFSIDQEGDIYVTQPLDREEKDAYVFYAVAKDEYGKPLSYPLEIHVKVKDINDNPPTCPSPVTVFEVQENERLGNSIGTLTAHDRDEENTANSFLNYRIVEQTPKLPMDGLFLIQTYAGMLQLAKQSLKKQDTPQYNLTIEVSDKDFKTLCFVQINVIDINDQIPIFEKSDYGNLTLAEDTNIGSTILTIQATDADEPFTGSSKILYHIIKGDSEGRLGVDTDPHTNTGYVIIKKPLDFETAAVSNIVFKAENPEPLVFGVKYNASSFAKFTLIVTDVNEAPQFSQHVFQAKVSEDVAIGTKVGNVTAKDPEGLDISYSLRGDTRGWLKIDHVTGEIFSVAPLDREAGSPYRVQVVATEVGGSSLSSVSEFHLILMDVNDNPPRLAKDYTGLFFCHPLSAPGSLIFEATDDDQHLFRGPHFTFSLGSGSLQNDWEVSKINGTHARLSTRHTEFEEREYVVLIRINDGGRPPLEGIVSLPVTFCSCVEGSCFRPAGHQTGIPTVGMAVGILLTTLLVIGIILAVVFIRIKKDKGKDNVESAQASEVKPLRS
UniProt P13688, residues 35-526: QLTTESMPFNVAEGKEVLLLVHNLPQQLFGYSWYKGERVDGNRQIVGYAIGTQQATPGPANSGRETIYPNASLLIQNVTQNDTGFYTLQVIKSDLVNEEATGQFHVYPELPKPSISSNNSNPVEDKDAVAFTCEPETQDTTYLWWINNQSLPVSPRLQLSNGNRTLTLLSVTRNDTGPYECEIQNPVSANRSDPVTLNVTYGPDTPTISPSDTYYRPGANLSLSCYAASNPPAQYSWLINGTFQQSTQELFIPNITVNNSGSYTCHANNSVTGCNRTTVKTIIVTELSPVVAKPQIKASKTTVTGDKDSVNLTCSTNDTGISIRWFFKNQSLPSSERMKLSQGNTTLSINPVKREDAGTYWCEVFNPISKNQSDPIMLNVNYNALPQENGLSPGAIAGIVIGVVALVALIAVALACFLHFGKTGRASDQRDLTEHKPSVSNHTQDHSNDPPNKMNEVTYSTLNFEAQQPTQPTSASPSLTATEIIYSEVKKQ
UniProt P15924: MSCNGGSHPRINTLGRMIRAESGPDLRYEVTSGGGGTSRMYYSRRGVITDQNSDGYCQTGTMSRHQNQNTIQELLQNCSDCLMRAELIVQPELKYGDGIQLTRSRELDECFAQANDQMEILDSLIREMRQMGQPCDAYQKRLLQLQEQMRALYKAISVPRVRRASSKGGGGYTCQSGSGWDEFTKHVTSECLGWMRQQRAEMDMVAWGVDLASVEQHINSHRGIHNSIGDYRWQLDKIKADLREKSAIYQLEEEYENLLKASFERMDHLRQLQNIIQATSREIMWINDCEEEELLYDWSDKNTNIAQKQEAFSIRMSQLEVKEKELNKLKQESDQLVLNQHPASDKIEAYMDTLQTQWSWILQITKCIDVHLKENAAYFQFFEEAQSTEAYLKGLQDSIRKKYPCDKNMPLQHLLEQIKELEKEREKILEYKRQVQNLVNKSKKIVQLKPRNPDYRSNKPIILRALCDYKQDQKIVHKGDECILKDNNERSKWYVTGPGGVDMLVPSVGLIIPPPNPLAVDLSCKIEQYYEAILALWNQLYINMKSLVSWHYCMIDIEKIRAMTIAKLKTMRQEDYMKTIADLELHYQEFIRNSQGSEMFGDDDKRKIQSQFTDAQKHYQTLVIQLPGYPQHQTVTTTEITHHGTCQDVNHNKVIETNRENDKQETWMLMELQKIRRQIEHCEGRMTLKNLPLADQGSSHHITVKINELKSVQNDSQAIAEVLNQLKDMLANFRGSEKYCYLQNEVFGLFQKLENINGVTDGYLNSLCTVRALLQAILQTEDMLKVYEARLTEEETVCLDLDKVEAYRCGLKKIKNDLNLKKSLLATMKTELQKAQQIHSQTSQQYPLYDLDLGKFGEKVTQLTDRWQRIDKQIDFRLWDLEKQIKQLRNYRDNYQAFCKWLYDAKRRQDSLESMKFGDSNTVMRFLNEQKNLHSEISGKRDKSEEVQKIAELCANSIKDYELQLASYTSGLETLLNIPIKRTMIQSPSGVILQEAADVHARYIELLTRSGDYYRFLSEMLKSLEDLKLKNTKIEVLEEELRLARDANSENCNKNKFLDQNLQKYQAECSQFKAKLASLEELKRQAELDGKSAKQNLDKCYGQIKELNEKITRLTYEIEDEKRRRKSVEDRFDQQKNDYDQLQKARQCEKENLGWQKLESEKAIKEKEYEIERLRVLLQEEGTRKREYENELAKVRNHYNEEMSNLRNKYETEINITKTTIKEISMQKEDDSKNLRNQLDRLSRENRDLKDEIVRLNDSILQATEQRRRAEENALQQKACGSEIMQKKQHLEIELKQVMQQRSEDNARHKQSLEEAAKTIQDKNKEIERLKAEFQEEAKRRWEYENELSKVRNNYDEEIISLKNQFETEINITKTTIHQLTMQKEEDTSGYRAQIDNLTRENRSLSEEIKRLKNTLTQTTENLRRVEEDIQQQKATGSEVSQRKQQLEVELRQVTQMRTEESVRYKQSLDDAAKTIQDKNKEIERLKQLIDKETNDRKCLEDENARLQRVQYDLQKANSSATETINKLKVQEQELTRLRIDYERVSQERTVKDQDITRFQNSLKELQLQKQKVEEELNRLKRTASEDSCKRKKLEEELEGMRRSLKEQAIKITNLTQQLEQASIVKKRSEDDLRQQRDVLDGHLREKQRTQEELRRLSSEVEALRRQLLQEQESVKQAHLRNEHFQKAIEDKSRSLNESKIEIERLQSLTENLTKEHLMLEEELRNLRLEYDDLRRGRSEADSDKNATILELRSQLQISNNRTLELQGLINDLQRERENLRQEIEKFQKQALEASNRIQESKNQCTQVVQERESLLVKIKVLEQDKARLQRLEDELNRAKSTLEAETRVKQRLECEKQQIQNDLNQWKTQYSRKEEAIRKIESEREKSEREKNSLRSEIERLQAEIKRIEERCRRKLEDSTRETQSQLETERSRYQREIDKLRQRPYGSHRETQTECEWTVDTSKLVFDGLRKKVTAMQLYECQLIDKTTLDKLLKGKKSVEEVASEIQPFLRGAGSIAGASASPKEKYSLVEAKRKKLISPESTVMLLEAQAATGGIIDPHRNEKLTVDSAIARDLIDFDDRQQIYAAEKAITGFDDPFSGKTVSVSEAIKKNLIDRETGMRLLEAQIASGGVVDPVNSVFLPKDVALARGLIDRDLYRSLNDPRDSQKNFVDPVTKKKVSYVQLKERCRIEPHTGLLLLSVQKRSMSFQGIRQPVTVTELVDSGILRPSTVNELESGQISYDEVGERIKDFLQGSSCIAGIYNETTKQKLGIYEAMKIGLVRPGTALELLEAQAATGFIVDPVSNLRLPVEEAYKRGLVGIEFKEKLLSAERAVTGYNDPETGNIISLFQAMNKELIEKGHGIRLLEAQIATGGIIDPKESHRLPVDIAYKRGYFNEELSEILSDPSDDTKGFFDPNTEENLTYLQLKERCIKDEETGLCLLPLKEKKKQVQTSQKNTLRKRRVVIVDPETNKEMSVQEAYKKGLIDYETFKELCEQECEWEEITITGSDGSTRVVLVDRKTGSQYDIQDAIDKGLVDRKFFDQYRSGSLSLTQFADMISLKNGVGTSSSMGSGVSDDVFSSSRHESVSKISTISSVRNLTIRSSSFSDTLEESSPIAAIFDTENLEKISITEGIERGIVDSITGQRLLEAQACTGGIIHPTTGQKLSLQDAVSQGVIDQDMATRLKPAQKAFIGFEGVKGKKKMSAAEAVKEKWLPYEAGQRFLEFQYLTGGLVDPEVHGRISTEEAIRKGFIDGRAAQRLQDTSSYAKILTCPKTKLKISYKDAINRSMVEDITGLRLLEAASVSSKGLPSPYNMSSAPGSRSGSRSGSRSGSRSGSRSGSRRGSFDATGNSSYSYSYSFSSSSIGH
UniProt P04004, residues 20-478: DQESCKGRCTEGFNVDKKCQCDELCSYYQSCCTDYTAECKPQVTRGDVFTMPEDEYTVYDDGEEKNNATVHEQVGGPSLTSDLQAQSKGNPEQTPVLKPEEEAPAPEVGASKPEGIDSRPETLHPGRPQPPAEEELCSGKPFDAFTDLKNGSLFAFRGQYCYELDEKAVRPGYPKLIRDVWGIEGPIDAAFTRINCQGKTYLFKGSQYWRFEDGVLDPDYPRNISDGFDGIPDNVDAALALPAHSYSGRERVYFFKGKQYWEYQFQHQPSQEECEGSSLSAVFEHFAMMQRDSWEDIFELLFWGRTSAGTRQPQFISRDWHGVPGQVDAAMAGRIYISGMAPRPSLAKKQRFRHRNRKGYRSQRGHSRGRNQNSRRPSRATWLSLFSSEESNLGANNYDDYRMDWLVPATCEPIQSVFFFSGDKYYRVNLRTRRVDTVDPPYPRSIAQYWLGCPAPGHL
UniProt O75131: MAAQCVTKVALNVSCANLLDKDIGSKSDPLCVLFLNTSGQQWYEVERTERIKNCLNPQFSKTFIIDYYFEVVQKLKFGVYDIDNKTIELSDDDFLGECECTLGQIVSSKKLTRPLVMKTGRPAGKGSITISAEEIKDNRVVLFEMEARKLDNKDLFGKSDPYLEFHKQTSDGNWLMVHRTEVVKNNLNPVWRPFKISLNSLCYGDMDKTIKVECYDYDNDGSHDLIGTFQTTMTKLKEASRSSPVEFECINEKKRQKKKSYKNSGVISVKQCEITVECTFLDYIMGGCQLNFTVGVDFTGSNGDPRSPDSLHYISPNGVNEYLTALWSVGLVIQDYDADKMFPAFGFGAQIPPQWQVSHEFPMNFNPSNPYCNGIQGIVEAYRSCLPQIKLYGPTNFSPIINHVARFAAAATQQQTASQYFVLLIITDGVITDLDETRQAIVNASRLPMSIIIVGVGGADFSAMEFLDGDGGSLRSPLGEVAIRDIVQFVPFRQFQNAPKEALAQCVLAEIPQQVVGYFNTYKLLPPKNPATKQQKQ
UniProt P21796: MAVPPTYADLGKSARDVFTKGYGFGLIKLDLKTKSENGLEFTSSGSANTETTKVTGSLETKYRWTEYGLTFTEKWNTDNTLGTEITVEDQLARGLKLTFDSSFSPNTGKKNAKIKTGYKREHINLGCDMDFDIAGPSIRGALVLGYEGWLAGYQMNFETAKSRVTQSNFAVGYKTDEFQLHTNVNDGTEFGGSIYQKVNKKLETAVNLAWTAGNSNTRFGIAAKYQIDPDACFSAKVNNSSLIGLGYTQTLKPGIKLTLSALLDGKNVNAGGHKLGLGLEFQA

Molecular target: liver–intestine-cadherin (CDH17) (human (endogenous in Caco-2)) (UniProt Q12864)
Test: proximity labelling; AAPL: differentiated Caco-2 cells treated with LI-cadherin-specific oxidizing antibody probe, then H2O2; quantitative oxidative proteomics; L1/L2 by AAPL score; also after pretreatment of the cells with kifunensine or the sialyltransferase inhibitor 3Fax-peracetylNeu5Ac

Row | Molecule | binding
1 | CEAM1 (from UniProt P13688 35-526) | binds
2 | desmoplakin (from UniProt P15924 1-2871) | no binding
3 | ATLA3 (protein, UniProt Q6DD88 1-541, glycosylated (sialylated glycans)) MLSPQRVAAAASRGADDAMESSKPGPVQVVLVQKDQHSFELDEKALASILLQDHIRDLDVVVVSVAGAFRKGKSFILDFMLRYLYSQKESGHSNWLGDPEEPLTGFSWRGGSDPETTGIQIWSEVFTVEKPGGKKVAVVLMDTQGAFDSQSTVKDCATIFALSTMTSSVQIYNLSQNIQEDDLQQLQLFTEYGRLAMDEIFQKPFQTLMFLVRDWSFPYEYSYGLQGGMAFLDKRLQVKEHQHEEIQNVRNHIHSCFSDVTCFLLPHPGLQVATSPDFDGKLKDIAGEFKEQLQALIPYVLNPSKLMEKEINGSKVTCRGLLEYFKAYIKIYQGEDLPHPKSMLQATAEANNLAAAASAKDIYYNNMEEVCGGEKPYLSPDILEEKHCEFKQLALDHFKKTKKMGGKDFSFRYQQELEEEIKELYENFCKHNGSKNVFSTFRTPAVLFTGIVALYIASGLTGFIGLEVVAQLFNCMVGLLLIALLTWGYIRYSGQYRELGGAIDFGAAYVLEQASSHIGNSTQATVRDAVVGRPSMDKKAQ | binds

Continued, values first:

Row | binding | Molecule
4 | binds | VTNC (from UniProt P04004 20-478)
5 | binds | PTPN1 (enzyme, UniProt P18031 1-435) MEMEKEFEQIDKSGSWAAIYQDIRHEASDFPCRVAKLPKNKNRNRYRDVSPFDHSRIKLHQEDNDYINASLIKMEEAQRSYILTQGPLPNTCGHFWEMVWEQKSRGVVMLNRVMEKGSLKCAQYWPQKEEKEMIFEDTNLKLTLISEDIKSYYTVRQLELENLTTQETREILHFHYTTWPDFGVPESPASFLNFLFKVRESGSLSPEHGPVVVHCSAGIGRSGTFCLADTCLLLMDKRKDPSSVDIKKVLLEMRKFRMGLIQTADQLRFSYLAVIEGAKFIMGDSSVQDQWKELSHEDLEPPPEHIPPPPRPPKRILEPHNGKCREFFPNHQWVKEETQEDKDCPIKEEKGSPLNAAPYGIESMSQDTEVRSRVVGGSLRGAQAASPAKGEPSLPEKDEDHALSYWKPFLVNMCVATVLTAGAYLCYRFLFNSNT
6 | binds | STT3A (enzyme, UniProt P46977 1-705, glycosylated (primarily high mannose type glycans)) MTKFGFLRLSYEKQDTLLKLLILSMAAVLSFSTRLFAVLRFESVIHEFDPYFNYRTTRFLAEEGFYKFHNWFDDRAWYPLGRIIGGTIYPGLMITSAAIYHVLHFFHITIDIRNVCVFLAPLFSSFTTIVTYHLTKELKDAGAGLLAAAMIAVVPGYISRSVAGSYDNEGIAIFCMLLTYYMWIKAVKTGSICWAAKCALAYFYMVSSWGGYVFLINLIPLHVLVLMLTGRFSHRIYVAYCTVYCLGTILSMQISFVGFQPVLSSEHMAAFGVFGLCQIHAFVDYLRSKLNPQQFEVLFRSVISLVGFVLLTVGALLMLTGKISPWTGRFYSLLDPSYAKNNIPIIASVSEHQPTTWSSYYFDLQLLVFMFPVGLYYCFSNLSDARIFIIMYGVTSMYFSAVMVRLMLVLAPVMCILSGIGVSQVLSTYMKNLDISRPDKKSKKQQDSTYPIKNEVASGMILVMAFFLITYTFHSTWVTSEAYSSPSIVLSARGGDGSRIIFDDFREAYYWLRHNTPEDAKVMSWWDYGYQITAMANRTILVDNNTWNNTHISRVGQAMASTEEKAYEIMRELDVSYVLVIFGGLTGYSSDDINKFLWMVRIGGSTDTGKHIKENDYYTPTGEFRVDREGSPVLLNCLMYKMCYYRFGQVYTEAKRPPGFDRVRNAEIGNKDFELDVLEEAYTTEHWLVRIYKVKDLDNRGLSRT

Molecular target: human epidermal growth factor receptor 2 (ERBB2) (human) (UniProt P04626)
Test: proximity labelling; AAPL: SKBR3 cells treated with anti-ERBB2 antibody (Herceptin) carrying an Fe(III) probe (FeDBAb, optimal condition M5), then H2O2; membrane proteins enriched, quantitative oxidative proteomics; AAPL score >1 = L1, 0-1 with EPO FC >1.5 = L2 interactor

Row | binding | Molecule
7 | binds | CPNE3 (copine-3) (from UniProt O75131 1-537)
8 | binds | VDAC1 (from UniProt P21796 1-283)
9 | binds | PTPN1 (enzyme, UniProt P18031 1-435) MEMEKEFEQIDKSGSWAAIYQDIRHEASDFPCRVAKLPKNKNRNRYRDVSPFDHSRIKLHQEDNDYINASLIKMEEAQRSYILTQGPLPNTCGHFWEMVWEQKSRGVVMLNRVMEKGSLKCAQYWPQKEEKEMIFEDTNLKLTLISEDIKSYYTVRQLELENLTTQETREILHFHYTTWPDFGVPESPASFLNFLFKVRESGSLSPEHGPVVVHCSAGIGRSGTFCLADTCLLLMDKRKDPSSVDIKKVLLEMRKFRMGLIQTADQLRFSYLAVIEGAKFIMGDSSVQDQWKELSHEDLEPPPEHIPPPPRPPKRILEPHNGKCREFFPNHQWVKEETQEDKDCPIKEEKGSPLNAAPYGIESMSQDTEVRSRVVGGSLRGAQAASPAKGEPSLPEKDEDHALSYWKPFLVNMCVATVLTAGAYLCYRFLFNSNT
10 | binds | S100A14 (protein, UniProt Q9HCY8 1-104) MGQCRSANAEDAQEFSDVERAIETLIKNFHQYSVEGGKETLTPSELRDLVTQQLPHLMPSNCGLEEKIANLGSCNDSKLEFRSFWELIGEAAKSVKLERPVRGH
